Results from publication doi:10.1101/2020.09.14.296160.
Substitutions are numbered along the chain they refer to. Names may count otherwise. No constants are given. Whether binding was seen depends on the method and setting. Some entries that bind do so weakly or less than the wild type. Blank lines part the entries; values can stand above or below the binder they belong to.

By UniProt entry, the sequences of proteins in these tests, tags left out.
UniProt Q9UKA9: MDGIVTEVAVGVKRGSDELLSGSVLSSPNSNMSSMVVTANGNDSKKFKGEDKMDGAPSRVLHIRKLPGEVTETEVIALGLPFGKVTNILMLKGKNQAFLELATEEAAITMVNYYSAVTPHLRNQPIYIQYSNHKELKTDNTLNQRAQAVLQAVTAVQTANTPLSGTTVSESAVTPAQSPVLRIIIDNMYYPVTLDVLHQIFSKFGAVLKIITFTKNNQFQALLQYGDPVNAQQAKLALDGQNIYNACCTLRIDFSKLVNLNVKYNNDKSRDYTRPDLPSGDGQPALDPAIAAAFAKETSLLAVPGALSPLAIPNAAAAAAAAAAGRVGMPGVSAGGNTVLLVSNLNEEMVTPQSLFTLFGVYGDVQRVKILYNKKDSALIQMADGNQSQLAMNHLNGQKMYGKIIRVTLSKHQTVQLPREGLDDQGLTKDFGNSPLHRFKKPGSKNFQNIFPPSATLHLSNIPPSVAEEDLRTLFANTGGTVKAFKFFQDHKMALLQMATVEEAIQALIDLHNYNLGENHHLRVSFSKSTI
UniProt P26599: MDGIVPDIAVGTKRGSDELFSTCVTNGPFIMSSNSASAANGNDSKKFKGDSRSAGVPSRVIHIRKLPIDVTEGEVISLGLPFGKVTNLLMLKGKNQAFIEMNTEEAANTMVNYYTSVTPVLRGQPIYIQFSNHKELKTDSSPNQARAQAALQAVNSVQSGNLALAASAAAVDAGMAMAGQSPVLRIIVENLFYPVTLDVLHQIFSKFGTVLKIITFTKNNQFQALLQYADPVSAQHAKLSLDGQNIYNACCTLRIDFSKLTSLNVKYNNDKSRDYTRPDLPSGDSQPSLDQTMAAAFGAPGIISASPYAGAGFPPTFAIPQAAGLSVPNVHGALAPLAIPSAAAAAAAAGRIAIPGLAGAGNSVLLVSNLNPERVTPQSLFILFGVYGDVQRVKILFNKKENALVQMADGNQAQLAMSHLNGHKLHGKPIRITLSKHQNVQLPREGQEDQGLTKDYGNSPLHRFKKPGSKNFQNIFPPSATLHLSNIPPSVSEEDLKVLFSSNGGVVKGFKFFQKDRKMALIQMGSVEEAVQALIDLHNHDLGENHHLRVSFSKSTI
UniProt Q01844: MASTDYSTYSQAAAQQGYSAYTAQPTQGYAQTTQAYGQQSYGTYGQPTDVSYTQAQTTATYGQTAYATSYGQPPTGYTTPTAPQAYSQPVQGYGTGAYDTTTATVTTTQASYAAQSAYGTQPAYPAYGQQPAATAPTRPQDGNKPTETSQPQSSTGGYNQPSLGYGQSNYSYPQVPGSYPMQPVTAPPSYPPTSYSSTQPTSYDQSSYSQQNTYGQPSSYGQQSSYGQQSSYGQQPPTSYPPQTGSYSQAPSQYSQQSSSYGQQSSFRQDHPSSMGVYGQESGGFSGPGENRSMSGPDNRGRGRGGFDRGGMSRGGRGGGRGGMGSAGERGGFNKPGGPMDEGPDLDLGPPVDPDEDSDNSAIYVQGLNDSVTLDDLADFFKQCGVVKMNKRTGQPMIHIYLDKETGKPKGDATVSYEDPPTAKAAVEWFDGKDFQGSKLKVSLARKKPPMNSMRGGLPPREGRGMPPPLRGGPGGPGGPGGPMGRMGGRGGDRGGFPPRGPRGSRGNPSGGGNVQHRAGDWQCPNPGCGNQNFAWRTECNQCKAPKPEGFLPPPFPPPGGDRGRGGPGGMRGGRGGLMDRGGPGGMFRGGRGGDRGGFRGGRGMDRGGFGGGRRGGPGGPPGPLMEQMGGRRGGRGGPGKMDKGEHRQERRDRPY

What was measured:
Assay in all cases: two-hybrid
[1] = biological target: T1, QKI (human) (UniProt Q96PU8)
T1 sequence: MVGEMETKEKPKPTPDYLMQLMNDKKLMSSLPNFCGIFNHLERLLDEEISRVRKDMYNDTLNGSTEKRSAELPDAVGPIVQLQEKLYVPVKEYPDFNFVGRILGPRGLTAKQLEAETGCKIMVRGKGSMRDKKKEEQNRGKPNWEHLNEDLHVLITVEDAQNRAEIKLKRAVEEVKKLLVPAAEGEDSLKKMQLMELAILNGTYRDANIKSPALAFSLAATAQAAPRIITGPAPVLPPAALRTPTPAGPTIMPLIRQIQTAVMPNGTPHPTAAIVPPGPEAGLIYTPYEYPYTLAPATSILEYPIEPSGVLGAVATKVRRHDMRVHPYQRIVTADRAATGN

[2] = biological target: T2, SRRM4 (human) (UniProt A7MD48)
T2 sequence: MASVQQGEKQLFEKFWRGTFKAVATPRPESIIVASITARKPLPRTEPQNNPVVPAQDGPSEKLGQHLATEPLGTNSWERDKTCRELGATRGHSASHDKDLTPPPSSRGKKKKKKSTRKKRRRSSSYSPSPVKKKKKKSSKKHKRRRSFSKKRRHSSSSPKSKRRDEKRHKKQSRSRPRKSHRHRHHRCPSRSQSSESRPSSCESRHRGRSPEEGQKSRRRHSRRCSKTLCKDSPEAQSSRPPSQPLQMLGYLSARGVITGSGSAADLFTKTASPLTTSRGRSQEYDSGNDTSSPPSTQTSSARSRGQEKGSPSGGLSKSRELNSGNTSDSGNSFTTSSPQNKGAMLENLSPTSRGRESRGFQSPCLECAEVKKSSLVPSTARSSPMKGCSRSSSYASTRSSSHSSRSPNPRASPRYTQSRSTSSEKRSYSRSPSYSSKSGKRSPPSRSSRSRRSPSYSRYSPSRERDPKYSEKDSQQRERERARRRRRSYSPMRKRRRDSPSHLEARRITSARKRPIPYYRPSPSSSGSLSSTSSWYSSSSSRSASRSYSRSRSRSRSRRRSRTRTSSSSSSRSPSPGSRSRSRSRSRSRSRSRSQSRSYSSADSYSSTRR

[3] = biological target: U2AF2 (human), P26368; conditions: remark: other sources report otherwise
[4] = biological target: PTBP2 (human) (UniProt Q9UKA9)
[5] = biological target: PTBP1 (human) (UniProt P26599)
[6] = biological target: T3, NEXT component RBM7 (human) (UniProt Q9Y580)
T3 sequence: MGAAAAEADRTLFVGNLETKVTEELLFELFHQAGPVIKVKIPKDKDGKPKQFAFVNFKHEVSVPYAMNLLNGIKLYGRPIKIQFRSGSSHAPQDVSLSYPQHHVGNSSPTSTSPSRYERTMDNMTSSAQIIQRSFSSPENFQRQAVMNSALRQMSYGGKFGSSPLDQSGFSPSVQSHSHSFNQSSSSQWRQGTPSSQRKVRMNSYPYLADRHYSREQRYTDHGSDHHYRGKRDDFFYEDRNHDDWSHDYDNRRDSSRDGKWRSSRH

[7] = biological target: EWSR1 (human) (UniProt Q01844)

binding [1]: binds
B1: RBFOX2 (protein, UniProt O43251 1-390)
chain: MQNEPLTPGYHGFPARDSQGNQEPTTTPDAMVQPFTTIPFPPPPQNGIPTEYGVPHTQDYAGQTGEHNLTLYGSTQAHGEQSSNSPSTQNGSLTTEGGAQTDGQQSQTQSSENSESKSTPKRLHVSNIPFRFRDPDLRQMFGQFGKILDVEIIFNERGSKGFGFVTFENSADADRAREKLHGTVVEGRKIEVNNATARVMTNKKMVTPYANGWKLSPVVGAVYGPELYAASSFQADVSLGNDAAVPLSGRGGINTYIPLISLPLVPGFPYPTAATTAAAFRGAHLRGRGRTVYGAVRAVPPTAIPAYPGVVYQDGFYGADLYGGYAAYRYAQPATATAATAAAAAAAAYSDGYGRVYTADPYHALAPAASYGVGAVASLYRGGYSRFAPY

binding [2]: binds
B2: SRSF11 (protein, UniProt Q05519 1-484)
chain: MSNTTVVPSTAGPGPSGGPGGGGGGGGGGGGTEVIQVTNVSPSASSEQMRTLFGFLGKIDELRLFPPDDSPLPVSSRVCFVKFHDPDSAVVAQHLTNTVFVDRALIVVPYAEGVIPDEAKALSLLAPANAVAGLLPGGGLLPTPNPLTQIGAVPLAALGAPTLDPALAALGLPGANLNSQSLAADQLLKLMSTVDPKLNHVAAGLVSPSLKSDTSSKEIEEAMKRVREAQSLISAAIEPDKKEEKRRHSRSRSRSRRRRTPSSSRHRRSRSRSRRRSHSKSRSRRRSKSPRRRRSHSRERGRRSRSTSKTRDKKKEDKEKKRSKTPPKSYSTARRSRSASRERRRRRSRSGTRSPKKPRSPKRKLSRSPSPRRHKKEKKKDKDKERSRDERERSTSKKKKSKDKEKDRERKSESDKDVKQVTRDYDEEEQGYDSEKEKKEEKKPIETGSPKTKECSVEKGTGDSLRESKVNGDDHHEEDMDMSD

binding [2]: binds
B3: SRRM3 (protein, UniProt A6NNA2 1-597)
chain: MSSTVNNGAASMQSTPDAANGFPQPSSSSGTWPRAEEELRAAEPGLVKRAHREILDHERKRRVELKCMELQEMMEEQGYSEEEIRQKVGTFRQMLMEKEGVLTREDRPGGHIVAETPRLTEGAEPGLEYAPFDDDDGPVDCDCPASCYRGHRGYRTKHWSSSSASPPPKKKKKKKGGHRRSRKKRRLESECSCGSSSPLRKKKKSVKKHRRDRSDSGSRRKRRHRSRSSKCKRKEKNKEKKRPHTESPGRRSHRHSSGSSHSPSLSSHYSDSRSPSRLSPKHRDEGRKTGSQRSSGSRSPSPSGGSGWGSPQRNGGSGQRSGAHGGRPGSAHSPPDKPSSPSPRVRDKAAAAAPTPPARGKESPSPRSAPSSQGRGGRAAGGAGRRRRRRRRRRRSRSSASAPRRRGRRRPRPAPPRGSSRSLSRARSSSDSGSGRGAPGPGPEPGSERGHGGHGKRAKERPPRARPASTSPSPGAHGRRGGPEGKSSSRSPGPHPRSWSSSRSPSKSRSRSAEKRPHSPSRSPSPKKPLSRDKDGEGRARHSEAEATRARRRSRSYSPIRKRRRDSPSFMEPRRITSAASVLFHTTGPAPLPPPAA

binding [2]: binds
B4: RNPS1 (protein, UniProt Q15287 1-305)
chain: MDLSGVKKKSLLGVKENNKKSSTRAPSPTKRKDRSDEKSKDRSKDKGATKESSEKDRGRDKTRKRRSASSGSSSTRSRSSSTSSSGSSTSTGSSSGSSSSSASSRSGSSSTSRSSSSSSSSGSPSPSRRRHDNRRRSRSKSKPPKRDEKERKRRSPSPKPTKVHIGRLTRNVTKDHIMEIFSTYGKIKMIDMPVERMHPHLSKGYAYVEFENPDEAEKALKHMDGGQIDGQEITATAVLAPWPRPPPRRFSPPRRMLPPPPMWRRSPPRMRRRSRSPRRRSPVRRRSRSPGRRRHRSRSSSNSSR

binding [3]: binds
B5: U2AF1, Q01081 1-240 (protein)
chain: MAEYLASIFGTEKDKVNCSFYFKIGACRHGDRCSRLHNKPTFSQTIALLNIYRNPQNSSQSADGLRCAVSDVEMQEHYDEFFEEVFTEMEEKYGEVEEMNVCDNLGDHLVGNVYVKFRREEDAEKAVIDLNNRWFNGQPIHAELSPVTDFREACCRQYEMGECTRGGFCNFMHLKPISRELRRELYGRRRKKHRSRSRSRERRSRSRDRGRGGGGGGGGGGGGRERDRRRSRDRERSGRF

binding [4]: no binding
binding [5]: no binding
binding [6]: no binding
B6: RBM10 I316F (protein, UniProt P98175 1-930)
chain: MEYERRGGRGDRTGRYGATDRSQDDGGENRSRDHDYRDMDYRSYPREYGSQEGKHDYDDSSEEQSAEDSYEASPGSETQRRRRRRHRHSPTGPPGFPRDGDYRDQDYRTEQGEEEEEEEDEEEEEKASNIVMLRMLPQAATEDDIRGQLQSHGVQAREVRLMRNKSSGQSRGFAFVEFSHLQDATRWMEANQHSLNILGQKVSMHYSDPKPKINEDWLCNKCGVQNFKRREKCFKCGVPKSEAEQKLPLGTRLDQQTLPLGGRELSQGLLPLPQPYQAQGVLASQALSQGSEPSSENANDTIILRNLNPHSTMDSFLGALAPYAVLSSSNVRVIKDKQTQLNRGFAFIQLSTIVEAAQLLQILQALHPPLTIDGKTINVEFAKGSKRDMASNEGSRISAASVASTAIAAAQWAISQASQGGEGTWATSEEPPVDYSYYQQDEGYGNSQGTESSLYAHGYLKGTKGPGITGTKGDPTGAGPEASLEPGADSVSMQAFSRAQPGAAPGIYQQSAEASSSQGTAANSQSYTIMSPAVLKSELQSPTHPSSALPPATSPTAQESYSQYPVPDVSTYQYDETSGYYYDPQTGLYYDPNSQYYYNAQSQQYLYWDGERRTYVPALEQSADGHKETGAPSKEGKEKKEKHKTKTAQQIAKDMERWARSLNKQKENFKNSFQPISSLRDDERRESATADAGYAILEKKGALAERQHTSMDLPKLASDDRPSPPRGLVAAYSGESDSEEEQERGGPEREEKLTDWQKLACLLCRRQFPSKEALIRHQQLSGLHKQNLEIHRRAHLSENELEALEKNDMEQMKYRDRAAERREKYGIPEPPEPKRRKYGGISTASVDFEQPTRDGLGSDNIGSRMLQAMGWKEGSGLGRKKQGIVTPIEAQTRVRGSGLGARGSSYGVTSTESYKETLHKTMVTRFNEAQ

binding [4]: no binding
binding [5]: no binding
binding [6]: no binding
B7: RBM10 R343G (protein, UniProt P98175 1-930)
chain: B6 chain with F316I, R343G

binding [4]: no binding
binding [5]: no binding
binding [6]: no binding
B8: RBM10 V354E (protein, UniProt P98175 1-930)
chain: B6 chain with F316I, V354E

binding [7]: binds
B9: NONO (protein, UniProt Q15233 1-471)
chain: MQSNKTFNLEKQNHTPRKHHQHHHQQQHHQQQQQQPPPPPIPANGQQASSQNEGLTIDLKNFRKPGEKTFTQRSRLFVGNLPPDITEEEMRKLFEKYGKAGEVFIHKDKGFGFIRLETRTLAEIAKVELDNMPLRGKQLRVRFACHSASLTVRNLPQYVSNELLEEAFSVFGQVERAVVIVDDRGRPSGKGIVEFSGKPAARKALDRCSEGSFLLTTFPRPVTVEPMDQLDDEEGLPEKLVIKNQQFHKEREQPPRFAQPGSFEYEYAMRWKALIEMEKQQQDQVDRNIKEAREKLEMEMEAARHEHQVMLMRQDLMRRQEELRRMEELHNQEVQKRKQLELRQEEERRRREEEMRRQQEEMMRRQQEGFKGTFPDAREQEIRMGQMAMGGAMGINNRGAMPPAPVPAGTPAPPGPATMMPDGTLGLTPPTTERFGQAATMEGIGAIGGTPPAFNRAAPGAEFAPNKRRRY
